According to paper PMC10163288:
The list shows a part of the results.

B1: il2ra_site1_3nfp_sap_15_mot_HHH_b1_02637_af2_000000013_0001_1_18_H_._HHH_b1_08141_af2_0001_0000100001_0000001_0_0001_af2pred_0001_af2pred_swapped (protein)
chain: TLRWLLRRAEKRGTEEEFVKRLLEEVAKSLGNPEDAKKFLKRDLRRAGIPPEEVEELVERAEELR
B2: il2ra_site2_3nfp_sap_13_mot_HHH_b2_07840_000000026_0001_18_34_H_._HHH_b2_06303_0001_0000600058_0000001_0_0001 (protein)
chain: SSSSSKAEEYLRIAIEIVRRAIEDGDPESARRSAEIAAAAAESNNDEEALKILEELLEELSSSSS
B3: il2ra_site1_3nfp_sap_16_mot_HHH_b1_07180_af2_000000260_0001_1_19_H_._HHH_b2_05359_af2_0001_0000400031_0000001_0_0001_af2pred_0001_af2pred (protein)
chain: SEELQELDRAAKKLDPELLELWWALAELLARKGDPRYLEVIKEVVELAKKNEEEAKELAKEVLEK
B4: il2ra_site1_2b5i_sap_17_mot_HHH_b2_01822_000000237_0001_40_54_H_._HHH_b2_07957_0001_0000100004_0000001_0_0001 (protein)
chain: SSSSELHRFAAELVDRLIEELGLDFEQARELTREAVRLIWRGVSEEEIEKLVEELARELRGSSSS
B5: il2ra_site1_3nfp_sap_16_mot_5dea99290cf7e133ebc5b763b21a7a39_0001_000000141_0001_34_49_H_._ems_3hC_617_0002_0001_0000300017_0000001_0_0001 (protein)
chain: NDKIAERLVRQAVEQNSPRILKKILEDLERVLGDPEEARERLRELLELVLGDPEEVERLLELAEE
B6: il2ra_site2_3nfp_normal_mot_HHH_b2_06150_000000217_0001_39_53_H_._de103a6a2759fb2eb67fe2c7ae4a7c2b_0001_0001_0000200008_0000001_0_af2pred_0001_1_af2pred_swapped (protein)
chain: SRRLEALRILRELGDPEAASSLFILAADVFVEGDPELRELLEQVLELVEEGDPEEARRLLEEIAN
B7: il2ra_site2_2erj_sap_20_mot_HHH_b2_06331_000000250_0001_1_15_H_._95ea16d1e5c3ef04f4ccc51fe24bf1b3_0001_0001_0000300018_0000001_0_0001 (protein)
chain: SSSSLRERYEELNELSKRLSEAAENNDKETIEELLEELRELVEETGDPALRLLLRLIKAQLSSSS
B8: il2ra_site1_2b5i_normal_mot_HHH_b1_02271_000000068_0001_1_16_H_._HHH_b2_05754_af2_0001_0000200009_0000001_0_af2pred_dldesign_0_af2pred (protein)
chain: SSSSSKEELTEEVKRLIEQAKKEKNRFEALKKLEEAYKLASKIDDEELLEEIEKLFKELSSSSSS
B9: il2ra_site1_2b5i_normal_mot_f5ff40796168375b462bec8614a1db4a_0001_1_000000138_0001_53_65_H_._HHH_b1_07775_af2_0001_0000200011_0000001_0_af2pred_dldesign_0_af2pr … (protein)
chain: SSSSSEELRELVKELIEEAKKLKDKKLAKKILLLAKRVAKKAGDEELVKEVEAELEKVLKSSSSS
B10: il2ra_site1_3nfp_sap_10_mot_58e3eb3031e6d57439b1b965989c2868_0001_af2_000000159_0001_19_34_H_._23df80f98f222f1add62a155639b9461_0001_0001_0000200014_0000001_0_0 … (protein)
chain: DAEEAIAEFIAEAVKNNNPKLLRKVLENAERFLGNPEEAKRLFEELLEKAGLSPEEIEEAKELVE
B11: il2ra_site1_1z92_sap_9_mot_74bb627b62bb877a56547cee6c7a6e54_0001_000000029_0001_1_13_H_._HHH_b2_03173_0001_0000200016_0000001_0_0001 (protein)
chain: SSSSDEAHEKFAKRVVEDFVKTIGLSEEQKEQLEELAKRLLEEGFSNREIFEELAKLAERLSSSS
B12: il2ra_site1_3nfp_sap_21_mot_HHH_b2_07963_000000178_0001_1_20_H_._HHH_eva_0385_af2_0001_0000100002_0000001_1_0001_af2pred_0001_af2pred (protein)
chain: SSSSTEELKELLEEAAELARNGNPEEALEVLREALRLAEERNDKNAEKFLRVAIKIVESLRSSSS
B13: il2ra_site1_1z92_normal_mot_54e474eed2d0515e81978198f0f96ec2_0001_000000202_0001_15_30_H_._544ef0e38e907b7890d4414ebae48784_0001_1_0001_0000300011_0000001_0 (protein)
chain: TREELIEELAKLLGLPPETVEEDLERFERLAGDPRLAVKAFLQVLKKQGELTPEVEELLEQIERT
B14: il2ra_site1_2b5i_normal_mot_HHH_b2_04910_000000118_0001_1_19_H_._HHH_b1_02435_af2_0001_0000700035_0000001_0 (protein)
chain: SSSSSEEARELFREADEADRRGDQEEAEELLEEALRLAREAGNRALARMIESALEHVRDHGSSSS
B15: il2ra_site1_2b5i_sap_17_mot_HHH_b1_07759_af2_000000221_0001_42_56_H_._HHH_b1_07304_af2_0001_0000400035_0000001_0_0001_af2pred_0001_af2pred (protein)
chain: SSSSDEETEFALEVLRLLWHLVAQGNEEEAEELLKEAREFLEKAGDEVAVKDLEKALRKMKSSSS
B16: il2ra_site2_2erj_sap_19_mot_HHH_b1_08609_000000203_0001_43_56_H_._7b66ed016c170d635ef469617b4fe817_0001_0001_0000200019_0000001_1_0001 (protein)
chain: SSSSNEELRRLYELANRITHLAARGDEEEAEELLEELERLAKKTDSENAREIAEWLRKHLGSSSS
B17: il2ra_site2_3nfp_normal_mot_HHH_b2_06150_000000217_0001_39_53_H_._HHH_b1_00039_af2_0001_0000100002_0000001_0_af2pred_0001_1_af2pred_swapped (protein)
chain: SSSSSSSIEELAEEARKLAEELGDESTRHIIRALLFLYELLGDPRAEEELERLLEALKSSSSSSS
B18: il2ra_site2_2erj_normal_mot_ems_3hC_1315_af2_000000245_0001_45_63_H_._a2bf7c1b5df5f4a6a28f683756f784c8_0001_1_0001_0000100004_0000001_0_af2pred_0001_af2pred (protein)
chain: SEEVVEKLRRAVEEGTLEEVLEELLKEAREKGDPELLLAVLLAIRSLQLGVPPEEVVRKFEEALR

Target: il2ra, P01589
Assay: yeast display titration

Apparent Kd, inactive:
B1 no binding seen
B2 no binding seen
B3 no binding seen
B4 > 2.63 nM
B5 no binding seen
B6 no binding seen
B7 no binding seen
B8 no binding seen
B9 no binding seen
B10 no binding seen
B11 no binding seen
B12 no binding seen
B13 no binding seen
B14 no binding seen
B15 no binding seen
B16 no binding seen
B17 no binding seen
B18 no binding seen

Reprinted at random: two entries already listed.
Apparent Kd, inactive:
B3 no binding seen
B13 no binding seen
